Results: patent publication US9464097B2, “Gold complexes” (UNIVERSITY COURT OF THE UNIVERSITY OF ST. ANDREWS, priority 2010, dated 2016)

Tested on: MDA MB231 (breast carcinoma) cell line
Assay: Cytotoxicity assay (CCK-8 viability), MDA MB231
Assay type: cell-based, human
Conditions: MDA MB231, 3 days incubation
Experimental: Cytotoxicity assay: The compound/complex was dissolved in DMSO and diluted in DMSO. The final dilution was in the respective culture medium and the final concentration of DMSO was always below 0.01%. Cells were pipetted into microtitre plates (NUNC) at 4000 cells/well and incubated at 37° C. in 5% CO2 in air for 24 hr. Varying concentrations of the compounds/complexes were applied to the cells in 10 μl volumes. The plates were incubated for 3 days at 37° C. 5% CO2 in air. The viability of the cells was measured using the Dojindo kit CCK-8 (Cell counting Kit—8, Dojindo technologies USA, CK04-11) method after incubation for 3 hr in the absence of light. The plates were read on an ELISA plate reader at a wavelength of 450 nm.

Compound: N.N.[Cl][Pt][Cl] [cisplatin]
- IC50: 28 µM
